{"sequences": {"note": "Protein sequences, listed by entry. Tags and fused reporters are not part of them. Lines headed by an entry give the natural chain unless they say otherwise; changes in a name come on top.", "UniProt Q8BHB0": "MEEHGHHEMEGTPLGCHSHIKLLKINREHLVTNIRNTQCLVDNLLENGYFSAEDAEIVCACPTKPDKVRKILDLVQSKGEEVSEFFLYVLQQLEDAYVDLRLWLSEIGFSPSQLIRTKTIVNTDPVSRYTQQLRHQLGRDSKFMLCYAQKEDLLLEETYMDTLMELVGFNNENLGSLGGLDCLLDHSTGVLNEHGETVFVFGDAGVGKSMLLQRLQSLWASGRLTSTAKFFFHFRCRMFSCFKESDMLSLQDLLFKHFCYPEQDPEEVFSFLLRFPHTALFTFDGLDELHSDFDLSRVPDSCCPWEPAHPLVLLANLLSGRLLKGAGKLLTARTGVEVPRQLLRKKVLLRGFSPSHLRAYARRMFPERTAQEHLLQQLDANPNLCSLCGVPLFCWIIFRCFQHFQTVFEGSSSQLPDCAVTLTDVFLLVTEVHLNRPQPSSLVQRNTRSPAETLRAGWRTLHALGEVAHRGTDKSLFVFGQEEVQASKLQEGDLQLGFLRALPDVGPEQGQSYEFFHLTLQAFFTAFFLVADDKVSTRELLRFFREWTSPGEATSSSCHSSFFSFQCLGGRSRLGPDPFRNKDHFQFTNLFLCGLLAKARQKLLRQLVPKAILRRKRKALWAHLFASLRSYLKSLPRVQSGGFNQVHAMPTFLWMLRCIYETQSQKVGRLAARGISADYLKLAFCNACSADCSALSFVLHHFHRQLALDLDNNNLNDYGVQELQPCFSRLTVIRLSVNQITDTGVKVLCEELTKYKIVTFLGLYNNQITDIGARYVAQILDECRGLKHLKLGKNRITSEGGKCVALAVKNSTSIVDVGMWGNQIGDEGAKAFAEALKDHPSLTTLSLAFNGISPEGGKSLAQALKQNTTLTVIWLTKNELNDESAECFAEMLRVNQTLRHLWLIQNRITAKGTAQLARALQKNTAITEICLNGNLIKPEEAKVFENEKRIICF", "UniProt Q8BG71": "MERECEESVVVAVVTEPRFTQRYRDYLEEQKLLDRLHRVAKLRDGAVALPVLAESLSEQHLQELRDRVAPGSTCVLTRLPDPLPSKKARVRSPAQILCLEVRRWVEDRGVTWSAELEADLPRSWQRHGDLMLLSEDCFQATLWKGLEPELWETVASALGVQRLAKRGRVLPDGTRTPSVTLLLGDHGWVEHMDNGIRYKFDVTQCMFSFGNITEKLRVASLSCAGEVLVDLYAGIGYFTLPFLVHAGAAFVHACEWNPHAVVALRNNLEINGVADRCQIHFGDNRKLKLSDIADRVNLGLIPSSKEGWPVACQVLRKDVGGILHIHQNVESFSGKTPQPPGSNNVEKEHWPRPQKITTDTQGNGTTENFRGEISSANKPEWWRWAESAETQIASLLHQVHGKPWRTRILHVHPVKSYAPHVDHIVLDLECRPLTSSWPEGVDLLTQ", "UniProt Q80X32": "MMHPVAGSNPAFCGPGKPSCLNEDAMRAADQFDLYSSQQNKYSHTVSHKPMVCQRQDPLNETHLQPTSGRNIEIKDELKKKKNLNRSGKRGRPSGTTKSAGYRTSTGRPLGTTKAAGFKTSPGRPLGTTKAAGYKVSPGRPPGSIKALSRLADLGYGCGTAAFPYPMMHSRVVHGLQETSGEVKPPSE", "UniProt Q80YV4": "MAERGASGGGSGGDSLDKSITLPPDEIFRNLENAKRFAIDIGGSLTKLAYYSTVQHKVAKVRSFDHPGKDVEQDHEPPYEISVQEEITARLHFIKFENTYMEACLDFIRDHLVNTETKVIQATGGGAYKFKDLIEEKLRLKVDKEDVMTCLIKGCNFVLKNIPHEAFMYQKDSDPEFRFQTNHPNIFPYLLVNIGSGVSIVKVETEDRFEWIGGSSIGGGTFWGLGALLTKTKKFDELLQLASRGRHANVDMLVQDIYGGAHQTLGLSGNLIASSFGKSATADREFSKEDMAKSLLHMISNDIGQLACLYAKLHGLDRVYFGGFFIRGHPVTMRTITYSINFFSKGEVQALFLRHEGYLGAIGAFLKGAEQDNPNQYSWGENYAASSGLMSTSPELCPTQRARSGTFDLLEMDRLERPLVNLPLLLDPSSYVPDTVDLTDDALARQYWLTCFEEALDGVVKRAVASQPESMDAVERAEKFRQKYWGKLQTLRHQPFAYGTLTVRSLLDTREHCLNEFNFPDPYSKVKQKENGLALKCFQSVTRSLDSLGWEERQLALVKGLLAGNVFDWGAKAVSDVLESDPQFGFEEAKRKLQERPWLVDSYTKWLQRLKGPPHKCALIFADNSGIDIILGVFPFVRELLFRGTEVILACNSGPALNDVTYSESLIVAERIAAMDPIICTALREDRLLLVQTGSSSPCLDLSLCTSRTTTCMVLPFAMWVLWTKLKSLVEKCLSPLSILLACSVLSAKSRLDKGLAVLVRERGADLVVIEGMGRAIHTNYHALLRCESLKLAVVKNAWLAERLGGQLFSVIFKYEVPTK", "UniProt Q8BH73": "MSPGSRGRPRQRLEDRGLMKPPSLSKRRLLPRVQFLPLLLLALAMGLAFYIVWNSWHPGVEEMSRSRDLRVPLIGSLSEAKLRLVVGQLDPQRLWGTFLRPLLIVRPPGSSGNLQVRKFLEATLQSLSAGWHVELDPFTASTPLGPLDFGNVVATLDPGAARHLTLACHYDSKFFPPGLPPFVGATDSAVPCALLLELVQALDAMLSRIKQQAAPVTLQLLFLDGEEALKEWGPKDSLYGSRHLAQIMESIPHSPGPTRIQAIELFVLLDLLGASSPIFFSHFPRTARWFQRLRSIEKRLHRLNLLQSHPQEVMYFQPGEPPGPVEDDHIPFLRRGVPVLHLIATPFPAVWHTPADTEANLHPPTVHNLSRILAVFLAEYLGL"}, "source": "the supplement of paper PMC12819154", "about": "“High-throughput peptide-centric local stability assay extends protein–ligand identification to membrane proteins, tissues and bacteria” (Nature Structural & Molecular Biology, 2025)", "note": "Some of the results follow. Most entries show no effect beyond the scatter of the controls."}
{"compound": "CN[C@@H]1C[C@H]2O[C@@](C)([C@@H]1OC)n1c3ccccc3c3c4c(c5c6ccccc6n2c5c31)C(=O)NC4 [staurosporine]", "experiment": "log2 fold change of tryptic peptide abundance, ligand vs vehicle (limited proteolysis) (log2 ratio); higher = more trypsin-susceptible (destabilized)", "conditions": "ligand concentration: 20 uM; sample: mouse liver crude lysate; replicate design: treated separately"}
{"target": "UniProt Q8BHB0 (peptide sequence: YVAQILDECR, peptide start residue: 775)", "log2 fold change": 0.426}
{"target": "UniProt Q8BG71 (peptide sequence: ILHVHPVK, peptide start residue: 408)", "log2 fold change": 0.0737}
{"target": "UniProt Q80X32 (peptide sequence: QDPLNETHLQPTSGR, peptide start residue: 56)", "log2 fold change": -0.257}
{"target": "UniProt Q80YV4 (peptide sequence: LKVDKEDVMTCLIK, peptide start residue: 140)", "log2 fold change": 0.33}
{"target": "UniProt Q8BH73 (peptide sequence: GLMKPPSLSK, peptide start residue: 17)", "log2 fold change": 0.0241}
